{
  "source": "paper PMC11500565",
  "binders": {"B1": {"name": "SHOOT GRAVITROPISM 5 (SGR5)-3×FLAG (protein, UniProt F4IPE3 1-445)", "chain": "MRTDQVMLSNKNTNTCCVVSSSSSDPFLSSSENGVTTTNTSTQKRKRRPAGTPDPDAEVVSLSPRTLLESDRYICEICNQGFQRDQNLQMHRRRHKVPWKLLKRDNNIEVKKRVYVCPEPTCLHHNPCHALGDLVGIKKHFRRKHSNHKQWVCERCSKGYAVQSDYKAHLKTCGTRGHSCDCGRVFSRVESFIEHQDNCSARRVHREPPRPPQTAVTVPACSSRTASTVSTPSSETNYGGTVAVTTPQPLEGRPIHQRISSSILTNSSNNLNLELQLLPLSSNQNPNQENQQQKVKEPSHHHNHNHDTTNLNLSIAPSSSYQHYNNFDRIKEIMASEQIMKIAMKEKAYAEEAKREAKRQREIAENEFANAKKIRQKAQAELERAKFLKEQSMKKISSTIMQVTCQTCKGQFQAVAVPAATADETSLVVSYMSSANTDGELENGF"}},
  "assay_in_all_cases": "co-IP; proteins co-expressed transiently in Nicotiana benthamiana leaves by agroinfiltration; protein extracts incubated with anti-HA antibody beads at 4°C for one hour; blots probed with anti-HA and anti-FLAG (anti-DYKDDDDK) antibodies",
  "key": {"ABF2-3×HA (Arabidopsis)": {"target": "T1, ABF2-3×HA (Arabidopsis) (UniProt Q9M7Q4)", "T1 sequence": "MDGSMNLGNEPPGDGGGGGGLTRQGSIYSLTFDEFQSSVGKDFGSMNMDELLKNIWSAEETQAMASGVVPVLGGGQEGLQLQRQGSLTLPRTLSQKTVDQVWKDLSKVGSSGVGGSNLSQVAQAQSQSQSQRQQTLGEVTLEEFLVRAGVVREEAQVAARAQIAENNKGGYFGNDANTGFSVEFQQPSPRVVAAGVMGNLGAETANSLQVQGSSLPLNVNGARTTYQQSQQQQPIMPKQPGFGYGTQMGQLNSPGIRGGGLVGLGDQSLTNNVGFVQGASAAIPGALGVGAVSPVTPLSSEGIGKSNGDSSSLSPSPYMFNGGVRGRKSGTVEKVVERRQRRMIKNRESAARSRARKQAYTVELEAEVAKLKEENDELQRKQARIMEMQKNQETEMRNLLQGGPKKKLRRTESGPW"}, "ABF1-3×HA (Arabidopsis)": {"target": "T2, ABF1-3×HA (Arabidopsis) (UniProt Q9M7Q5)", "T2 sequence": "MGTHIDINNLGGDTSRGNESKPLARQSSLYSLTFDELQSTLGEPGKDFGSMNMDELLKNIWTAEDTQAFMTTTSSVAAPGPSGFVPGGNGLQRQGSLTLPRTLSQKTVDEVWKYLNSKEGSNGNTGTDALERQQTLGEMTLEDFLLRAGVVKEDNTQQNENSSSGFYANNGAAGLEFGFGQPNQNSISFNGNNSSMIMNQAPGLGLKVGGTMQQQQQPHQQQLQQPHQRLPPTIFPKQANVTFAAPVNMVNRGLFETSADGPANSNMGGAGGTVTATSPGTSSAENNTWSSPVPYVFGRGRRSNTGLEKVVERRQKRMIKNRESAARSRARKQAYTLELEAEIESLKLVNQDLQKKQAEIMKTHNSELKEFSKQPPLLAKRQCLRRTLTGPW"}, "[1]": {"target": "T3, … DOMAIN 16 (IDD16) (Arabidopsis) (UniProt Q9FRH4)", "T3 sequence": "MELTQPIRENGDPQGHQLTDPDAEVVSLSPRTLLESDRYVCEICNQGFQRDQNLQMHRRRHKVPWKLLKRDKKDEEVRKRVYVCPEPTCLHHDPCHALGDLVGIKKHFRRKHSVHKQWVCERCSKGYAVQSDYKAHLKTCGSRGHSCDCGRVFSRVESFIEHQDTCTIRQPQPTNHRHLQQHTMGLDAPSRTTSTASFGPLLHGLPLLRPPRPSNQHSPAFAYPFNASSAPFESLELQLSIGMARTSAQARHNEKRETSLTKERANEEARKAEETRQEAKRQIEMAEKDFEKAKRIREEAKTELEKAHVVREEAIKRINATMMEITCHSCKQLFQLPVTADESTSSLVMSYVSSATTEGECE"}},
  "note": "Results are given in words; binding and its absence hold for the method and conditions named. Binding seen in cells or lysates may run through a third protein. Some entries that bind do so weakly or less than the wild type. Where a sequence is shown, tags or fusion partners need not be part of it.",
  "data": [
    {"binder": "B1", "values": [
      {"measurement": "binding", "setting": "ABF2-3×HA (Arabidopsis)", "value": "no binding"},
      {"measurement": "binding", "setting": "ABF1-3×HA (Arabidopsis)", "value": "no binding"},
      {"measurement": "binding", "setting": "[1]", "value": "binds"}
    ]}
  ]
}
